Laboratory results as given in patent publication CN112390885A.
Results are given in words; binding and its absence hold for the method and conditions named. Some entries that bind do so weakly or less than the wild type.

Sequences of proteins named here, by UniProt entry; tags and fusion partners are left off. A change or cut given only in a name is not applied to a line headed by its entry.
UniProt P09758: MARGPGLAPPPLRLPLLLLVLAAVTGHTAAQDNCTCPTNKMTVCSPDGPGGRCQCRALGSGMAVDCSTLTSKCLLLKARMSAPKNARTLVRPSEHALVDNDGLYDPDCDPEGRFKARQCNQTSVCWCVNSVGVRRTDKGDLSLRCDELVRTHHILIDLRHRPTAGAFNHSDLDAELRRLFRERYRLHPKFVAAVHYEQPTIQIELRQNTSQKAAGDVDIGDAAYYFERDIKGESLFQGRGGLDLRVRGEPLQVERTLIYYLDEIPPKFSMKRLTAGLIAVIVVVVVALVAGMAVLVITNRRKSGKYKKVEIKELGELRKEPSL

What was measured:
[1] = target: 食蟹猴TROP2, full length, on CHOK1 cells (CHOK1-cTROP2 2B2C2) (cynomolgus monkey); assay: FACS on CHOK1-cTROP2 cells
[2] = target: 人源TROP2, full length, on transfected cells (CHOK1-hTROP2 2B2; 293F-TROP2 6F6) (human) (UniProt P09758); assay: FACS on CHOK1-hTROP2 cells
[3] = target: 人源TROP2-hFc蛋白 (免疫原A; human TROP2 Thr88-Thr274 with human IgG Fc tag) (human) (UniProt P09758); assay: ELISA, hTROP2-hFc coated at 1.0 μg/mL

Measured: binding

B1: TROP2抗体 10E12C10F10 (antibody, V domains shown)
VH: QVRLVDSGGGVVQPGRSLRLSCAASGFTFSSYGIHWVRQAPGKGLEWVAVIWYDGNHKFYADSVKGRFTISRDNSKNTLYLQMNSLRAEDTAVYYCARGGILGGYADYWGQGTLVTVSS
VL: DVVMTQTPLSLPVSLGDQASISCRSSQSLVHSYGNTYLHWYLQKPGQSPKLLIYKVSNRFSGVPDRFSGSGSGTDFTLKISRVEAEDLGVYFCSQSTHVPTFGGGTKLEIK
binds: [1] | [2] | [3]
